Experimental data: patent US20100292200A1, “Methods for Modulating Apoptosis in Platelets” (The Walter and Eliza Hall Institute of Medical Research, priority 2006, published 2010)
No constants are given. Whether binding was seen depends on the method and setting. In cells and extracts the contact can be indirect. Some results given as binding are weak or reduced against the parent protein; the word gives no strength. For part of these data: Tags and fused reporters may be left off the sequences shown.

The chains behind the UniProt entries cited, without tags or fusion partners. Where a name states a change or a piece, a line headed by the entry shows the natural chain unless it says otherwise.
UniProt Q07812: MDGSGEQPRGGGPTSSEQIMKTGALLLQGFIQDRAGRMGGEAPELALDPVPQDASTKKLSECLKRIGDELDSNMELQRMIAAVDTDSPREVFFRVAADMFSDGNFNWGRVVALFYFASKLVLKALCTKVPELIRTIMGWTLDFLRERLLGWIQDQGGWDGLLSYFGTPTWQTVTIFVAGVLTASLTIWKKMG
UniProt Q64373: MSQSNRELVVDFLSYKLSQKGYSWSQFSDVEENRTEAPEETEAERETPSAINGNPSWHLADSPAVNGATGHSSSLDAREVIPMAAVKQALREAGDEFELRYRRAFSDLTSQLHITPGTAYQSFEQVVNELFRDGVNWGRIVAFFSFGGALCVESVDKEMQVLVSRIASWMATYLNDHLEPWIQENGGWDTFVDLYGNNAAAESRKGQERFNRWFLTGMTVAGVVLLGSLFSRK

Experiments:
[1] = target: T1, HA-tagged human Bak (human) (UniProt Q16611); assay: co-immunoprecipitation from Triton X-100 lysates of 293T cells co-expressing FLAG-Bcl-xL and HA-Bak
T1 sequence: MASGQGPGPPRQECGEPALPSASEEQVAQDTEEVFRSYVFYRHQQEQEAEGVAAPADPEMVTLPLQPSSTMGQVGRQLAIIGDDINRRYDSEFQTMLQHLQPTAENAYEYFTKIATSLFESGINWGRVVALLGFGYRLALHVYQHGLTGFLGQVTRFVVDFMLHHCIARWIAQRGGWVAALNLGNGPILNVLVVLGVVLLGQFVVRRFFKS

[2] = target: HA-tagged human Bax (human) (UniProt Q07812); assay: co-immunoprecipitation, 293T cells, FIG. 3B
[3] = target: T1, HA-tagged human Bak (human); assay: co-immunoprecipitation, 293T cells, FIG. 3B
[4] = target: HA-tagged human Bax (human) (UniProt Q07812); assay: co-immunoprecipitation from Triton X-100 lysates of 293T cells co-expressing FLAG-Bcl-xL and HA-Bax

Measured: binding

FLAG-tagged mouse Bcl-xL Plt16 (I182N) mutant (from UniProt Q64373 1-233)
binds: all assays above

FLAG-tagged mouse Bcl-xL Plt20 (Y15C) mutant (from UniProt Q64373 1-233)
binds: all assays above

FLAG-tagged wild type mouse Bcl-xL (from UniProt Q64373 1-233)
binds: [3]
